PubChem BioAssay AID2685 (National Center for Advancing Translational Sciences (NCATS), 2010)
The list shows a part of the results. Shown are side measurements of this screen, not its main read-out; they come without a call. The list favours compounds with an active or inconclusive main result. Potencies come from curve fits of mixed quality, noted in brackets.

Test: qHTS Assay for Lipid Storage Modulators in Drosophila S3 Cells;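 on cell number change: cells counted by Cell Tracker Red CMTPX staining in the red channel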
Settings: BODIPY lipid droplet fluorescence, 18-24 h; for cell number change: measured here: cell count max response, cells fed with added oleic acid
How it was run: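 Drosophila S3 cells loaded with oleic acid (400 uM, as added) and compounds at several concentrations; lipid droplets imaged by 488-nm laser-scanning cytometry, 500–530 nm intensity and object ratio to cell channel. Percent activity normalized to 20 uM Triacsin C.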

[1] = measured here: lipid fluorescence (Fed channel) AC50, cells fed with added oleic acid
[2] = measured here: cell number channel AC50, cells fed with added oleic acid

Structure (SMILES) | cell number change [%] | AC50 [1] | AC50 [2]
Cc1cccnc1NC(=O)CCc1c[nH]c2ccccc12 | 0.549 | 0.0206 µM [rising, full curve, poor fit] | 
O=C(NC1CCCCC1)C(c1cccs1)N(Cc1cccs1)C(=O)c1ccco1 (stereo not drawn) | 2.09 | 29.1 µM [falling, single point] | 
O=C1CC(C(=O)Nc2ccc(Cl)cc2)n2ncnc2N1 (stereo not drawn) | -43.8 |  | 23.1 µM [falling, single point]
COc1ccc(-c2nnc(-c3cccnc3)o2)cc1OC | 24.2 | 23.1 µM [rising, single point] | 
O=C(Nc1cccc(Cl)c1)NC1(C(=O)NCc2cccs2)CCCCC1 |  | 6.51 µM [falling, single point] | 6.51 µM [falling, single point]
COc1ccc(-c2cc(C(F)(F)F)n3nc(C(=O)N4CCOCC4)nc3n2)cc1 |  | 29.1 µM [rising, partial curve] | 
CN(C)/C=N/c1[nH]ncc1C#N | -4.17 |  | 
CC12CCC(C)(c3nc4ccccc4nc31)C2(C)C | 73.2 |  | 
Cn1nc(C(C)(C)C)c([N+](=O)[O-])c1C(=O)NC(C)(C)C | -6.97 | 1.3 µM [falling, full curve, poor fit] | 
CC(=O)Nc1ccc(NS(=O)(=O)c2ccc3[nH]c(=O)[nH]c3c2)cc1 | 42.4 | 29.1 µM [rising, single point] | 0.92 µM [rising, full curve, poor fit]
COc1ccccc1OCCNC(=O)C1CC(=O)N(Cc2ccccc2)C1 (stereo not drawn) | 18.9 | 0.092 µM [rising, full curve, poor fit] | 
COc1ccccc1C(=O)NC(=O)COc1cc(Cl)ccc1Cl | 11.4 |  | 
COc1ccc(C(=O)N/N=C/c2cccc3cccnc23)cc1 | 38.3 | 29.1 µM [rising, single point] | 18.4 µM [rising, single point]
Cc1cc(NC(=O)c2ccc(Cl)cc2)n(CCC#N)n1 | 9.91 | 6.51 µM [rising, single point] | 
O=C(CCCOc1ccc(Cl)cc1)N1CCOCC1 | -19 | 29.1 µM [falling, single point] | 
CCc1cc(C(=O)Nc2cc(S(=O)(=O)N(CC)CC)ccc2N2CCOCC2)sc1C | -21.2 | 29.1 µM [falling, single point] | 
CCC(CC)C(=O)OCC(=O)Nc1ccc(S(=O)(=O)N2CCOCC2)cc1OC | 25.9 | 6.51 µM [rising, single point] | 0.291 µM [rising, full curve, poor fit]
CCC(=O)Nc1ccc2nc(SCC(=O)N3CCCC3)sc2c1 | 63.5 | 3.26 µM [rising, partial curve] | 
O=Cc1c(N2CCSCC2)nc2ccccn2c1=O | -25 | 0.58 µM [falling, single point] | 0.651 µM [falling, single point]
COc1ccc(CC(=O)NNS(=O)(=O)c2ccccc2[N+](=O)[O-])cc1OC | 3.85 | 4.11 µM [falling, full curve] | 
CCSc1sccc1C1C(C#N)=C(N)N(c2cccnc2)C2=C1C(=O)CC(C)(C)C2 (stereo not drawn) | 15 | 0.0291 µM [rising, full curve, poor fit] | 
COC(=O)c1ccc(COC(=O)C2CCN(S(=O)(=O)c3c(Cl)cccc3Cl)CC2)o1 |  | 0.231 µM [rising, partial curve, poor fit] | 
Cc1nn(-c2ccccc2)c(Cl)c1CN(C(=O)CCl)c1ccc(Cl)cc1 | -28.8 | 9.2 µM [falling, partial curve] | 
C=CCn1c(CCC)nc2ccccc21 | -9.87 | 2.06 µM [falling, partial curve, poor fit] | 
CCOC(=O)Cn1nc(C)n(-c2ccc(F)cc2)c1=O | -56.7 |  | 
COc1ccc(C(=O)NCc2nnc(SCC(=O)N3CCc4ccccc43)n2Cc2ccccc2)cc1 | 49.3 |  | 16.4 µM [rising, single point]
CCCCOc1ccc(C(=O)NCC(=O)NCC(c2ccco2)N2CCCCC2)cc1 (stereo not drawn) | 31 |  | 11.6 µM [rising, partial curve, poor fit]
Cc1cc(NC(=O)c2ccc(NC(=O)C3CC3)cc2)no1 | 89.8 | 6.51 µM [falling, partial curve, poor fit] | 6.51 µM [falling, partial curve, poor fit]
CC(/C=C1\SC(=S)N(CCC(=O)Nc2ccc(O)cc2)C1=O)=C\c1ccccc1 | -62.1 | 10.3 µM [falling, partial curve, poor fit] | 9.2 µM [falling, partial curve]

Full records as entered above:
COc1ccc(CC(=O)NNS(=O)(=O)c2ccccc2[N+](=O)[O-])cc1OC is listed with cell number change [%]: 3.85; AC50 [1]: 4.11 µM [falling, full curve]
CC(/C=C1\SC(=S)N(CCC(=O)Nc2ccc(O)cc2)C1=O)=C\c1ccccc1 is listed with cell number change [%]: -62.1; AC50 [1]: 10.3 µM [falling, partial curve, poor fit]; AC50 [2]: 9.2 µM [falling, partial curve]
